Measured values reported in patent US20020127227A1 (GlaxoSmithKline, published 2002).
No constants are given. Whether binding was seen depends on the method and setting. Some binding calls cover weakened binding; strength is not graded here. Tags and fused reporters may be left off the sequences shown.

Key:
[1] = target: T1, GST-RHAMM (glutathione-S-transferase fused to the amino terminus of human RHAMM via a linker containing a thrombin cleavage site) (human) (UniProt O75330); test: plate immunoassay, coated antigen, biotinylated anti-mouse antibody and Eu3+ streptavidin fluorescence
T1 sequence (looked up): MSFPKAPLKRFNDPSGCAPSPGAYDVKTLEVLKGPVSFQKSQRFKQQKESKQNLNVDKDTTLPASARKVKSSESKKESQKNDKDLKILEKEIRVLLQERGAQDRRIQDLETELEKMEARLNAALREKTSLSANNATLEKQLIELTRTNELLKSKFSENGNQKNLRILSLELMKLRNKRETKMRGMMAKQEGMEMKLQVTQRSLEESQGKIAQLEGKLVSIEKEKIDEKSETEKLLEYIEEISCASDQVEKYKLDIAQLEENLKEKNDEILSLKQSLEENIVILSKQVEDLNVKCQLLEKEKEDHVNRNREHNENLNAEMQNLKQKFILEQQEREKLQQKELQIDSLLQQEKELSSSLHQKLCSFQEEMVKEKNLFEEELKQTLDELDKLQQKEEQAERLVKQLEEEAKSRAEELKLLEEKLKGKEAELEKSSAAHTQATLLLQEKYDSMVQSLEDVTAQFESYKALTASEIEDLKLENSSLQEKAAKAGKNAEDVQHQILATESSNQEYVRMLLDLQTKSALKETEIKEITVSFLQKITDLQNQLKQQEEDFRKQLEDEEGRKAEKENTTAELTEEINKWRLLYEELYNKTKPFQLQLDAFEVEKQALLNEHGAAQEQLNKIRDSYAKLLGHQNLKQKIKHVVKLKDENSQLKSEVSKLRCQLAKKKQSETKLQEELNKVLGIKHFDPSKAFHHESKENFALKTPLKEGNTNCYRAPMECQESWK

[2] = target: T2, recombinant human RHAMM (receptor for hyaluronic acid mediated motility), GST tag removed (human) (UniProt O75330); test: BIAcore SPR, mAb captured on rabbit anti-mouse IgG Fc, RHAMM injected
T2 sequence (looked up): T1 sequence (looked up)

- binding [1]: binds
- binding [2]: binds
B1: murine monoclonal antibody 16E10 (antibody, V domains shown)
VH: QVQLKESGPGLVAPSQSLSITCTVSGFSLTGYGVNWVRQPPGKGLEWLGMIWVDGGTDYNSALKSRLSISKDNSKSQVFLKMNSLQTDDTARYYCARGGSSLLGFAYWGQGTLVTVSA
VL: DIQMTQTTSSLSASLGDRVTISCRASQDISNYLNWYQQKPDGTVKLLIYYTSRLHSGVPSRFSGSGSGTDYSLTISNLEQEDIATYFCQQGNTLPRTFGGGTKLEIKR
modifications: N-terminus of the heavy chain blocked with pyroglutamic acid
notes: The rest is mouse IgG with a kappa light chain (amplified with mouse IgG CH1 and C kappa primers); also called mAb 16E10; ATCC 16E10
